From PubChem BioAssay AID2685 (National Center for Advancing Translational Sciences (NCATS), 2010)
Some of the results follow. These are further read-outs of the screen, such as a control signal, another cell line or another target. No call is given for them. The list favours compounds with an active or inconclusive main result. The note in brackets gives the kind of curve behind each potency; many fits are weak.

Assay: qHTS Assay for Lipid Storage Modulators in Drosophila S3 Cells;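 as to cell number change: cells counted by Cell Tracker Red CMTPX staining in the red channel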
Conditions: BODIPY lipid droplet fluorescence, 18-24 h; for cell number change: measured here: cell count max response, cells fed with added oleic acid
In short: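 Drosophila S3 cells got compounds at several concentrations plus oleic acid (400 uM solution). Laser-scanning cytometry with 488 nm excitation read lipid droplets at 500-530 nm and cells at 575-640 nm. Percent activity was relative to 20 uM Triacsin C.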

[1] = measured here: cell number channel AC50, cells fed with added oleic acid
[2] = measured here: lipid fluorescence (Fed channel) AC50, cells fed with added oleic acid

| SMILES | cell number change [%] | AC50 [1] | AC50 [2] |
| --- | --- | --- | --- |
| CCN(CC)S(=O)(=O)c1ccc(C)c(NC(=O)CSc2nc3ccc(C)cc3[nH]2)c1 | -83.3 | 29.1 µM [falling, partial curve, poor fit] | – |
| COc1ccc(C(C#N)Nc2ccccc2OC)cc1 (stereo not drawn) | -42.1 | 1.64 µM [falling, partial curve, poor fit] | 0.00517 µM [falling, full curve, poor fit] |
| OCC1CCCCN1C(=S)Nc1cccc(Cl)c1 (stereo not drawn) | 23.7 | 2.91 µM [falling, single point] | – |
| O=C(Cn1nc(-c2ccccc2)ccc1=O)NCC1CCCO1 (stereo not drawn) | 17.1 | – | 29.1 µM [rising, single point] |
| O=C(Cc1ccccc1F)Nc1nc(-c2cccs2)cs1 | -7.75 | – | 16.4 µM [rising, partial curve] |
| CCSC(=O)CCCCCCCCCCCO | -39.5 | 25.9 µM [falling, partial curve] | 18.4 µM [falling, single point] |
| COc1cc(/C=N/n2c(-c3ccccc3)n[nH]c2=S)cc(OC)c1OC | -22.7 | – | 32.6 µM [falling, single point] |
| CC1(C)CC(=O)C/C(=N/Nc2nc3ccccc3s2)C1 | -0.977 | – | 3.26 µM [falling, single point] |
| Cc1ccc(S(=O)(=O)N(C)C)cc1NC(=S)N1CCc2ccccc21 | 34 | 0.146 µM [rising, full curve, poor fit] | – |
| COc1ccccc1N1CCN(CCNC(=O)Nc2cccc(C)c2C)CC1 | – | 0.58 µM [rising, single point] | 6.51 µM [rising, single point] |
| CN1C(=O)[C@H]2[C@@H](C3CC3)N3C(=O)CN(CC4CC4)C(=O)[C@@]3(C)[C@H]2C1=O | 31.4 | 14.6 µM [rising, partial curve, poor fit] | 2.31 µM [falling, partial curve, poor fit] |
| Cc1cccc(N2CCN(CCNC(=O)c3cc4c(s3)CS(=O)(=O)C4)CC2)c1C | 50.6 | 14.6 µM [rising, single point] | – |
| COCCn1c(=O)[nH]c(=O)c2c1nc(-c1ccc(-c3ccc(Cl)cc3[N+](=O)[O-])o1)n2Cc1ccccc1 | -11.9 | – | 2.06 µM [rising, partial curve] |
| CN=C(Nc1cc(C)nn1CCC#N)c1ccc(F)cc1 | -13.4 | – | 0.651 µM [rising, single point] |
| COC(=O)c1ccc(CN(C(C)=O)c2ccccc2)o1 | -16.5 | – | – |
| Fc1ccc(Sc2nc(-c3ccccc3)nnc2C(F)(F)F)cc1 | -20.8 | – | 16.4 µM [falling, single point] |
| CCCCOc1ccc(C(=O)NCC(=O)N(C)CC(=O)Nc2ccc(N3CCOCC3)cc2)cc1 | -50 | 0.82 µM [falling, full curve, poor fit] | 0.58 µM [falling, single point] |
| COc1ccccc1CNC(=O)C(C)c1ccc([N+](=O)[O-])cc1 (stereo not drawn) | -35.3 | – | – |
| O=C(OCc1c(-c2ccccc2)ncc2ccccc12)c1ccc(Br)cc1 | – | – | 29.1 µM [falling, single point] |
| Cc1cc(C(=O)COc2cccnc2[N+](=O)[O-])c(C)n1-c1ccccc1 | – | – | 29.1 µM [rising, single point] |
| COC(=O)CCN(C)CCC(=O)OC | – | – | 29.1 µM [falling, single point] |
| CCOC(=O)c1ccc(NC(=S)N(CCCN2CCCCCC2)Cc2ccco2)cc1 | 24.6 | – | 14.6 µM [rising, single point] |
| CS(=O)(=O)c1ccc2nc(NC(=O)c3cc(-c4ccccc4)nn3-c3ccccc3)sc2c1 | 2.01 | 2.06 µM [rising, single point] | – |
| COc1ccc(C(=O)Nc2cccc(-c3nc4ncccc4o3)c2C)cc1 | 25.5 | 0.116 µM [rising, full curve] | 0.461 µM [rising, full curve, poor fit] |
| O=C(Nc1ccccc1)N1N=C(c2cccs2)CC1c1cccs1 (stereo not drawn) | -36.6 | 29.1 µM [falling, single point] | – |
| CCNc1nc(Oc2c(Cl)cccc2Cl)cc(C(F)(F)F)n1 | -2.3 | – | 20.6 µM [falling, single point] |
| Cc1cc2cc(C(=O)N3CCc4c([nH]c5ccccc45)C3c3ccccn3)ccc2o1 (stereo not drawn) | 19.5 | – | 6.51 µM [rising, single point] |
| O=C(COC(=O)CCN1C(=O)c2cccc([N+](=O)[O-])c2C1=O)NC1CCS(=O)(=O)C1 (stereo not drawn) | 58.6 | – | – |
| O=C(NCc1ccccc1Cl)c1cc(=O)[nH]c2ccccc12 | 34.6 | – | – |
| CCN1CCN(C(=O)C2CCN(C(=O)Nc3ccccc3)CC2)CC1 | -8.29 | – | 0.731 µM [rising, single point] |

Some of the entries so far, as comma-separated lines.
SMILES,cell number change [%],AC50 [1],AC50 [2]
Cc1ccc(S(=O)(=O)N(C)C)cc1NC(=S)N1CCc2ccccc21,34,"0.146 µM [rising, full curve, poor fit]",–
O=C(OCc1c(-c2ccccc2)ncc2ccccc12)c1ccc(Br)cc1,–,–,"29.1 µM [falling, single point]"
